Laboratory results: the supplement of paper PMC12067093, “Discovery and optimisation of a covalent ligand for TRIM25 and its application to targeted protein ubiquitination” (Chemical Science, 2025)
The other results are listed elsewhere or left out.

The chains behind the UniProt entries cited, without tags or fusion partners. Where a name states a change or a piece, a line headed by the entry shows the natural chain unless it says otherwise.
UniProt Q9NR09, whole entry, looked up: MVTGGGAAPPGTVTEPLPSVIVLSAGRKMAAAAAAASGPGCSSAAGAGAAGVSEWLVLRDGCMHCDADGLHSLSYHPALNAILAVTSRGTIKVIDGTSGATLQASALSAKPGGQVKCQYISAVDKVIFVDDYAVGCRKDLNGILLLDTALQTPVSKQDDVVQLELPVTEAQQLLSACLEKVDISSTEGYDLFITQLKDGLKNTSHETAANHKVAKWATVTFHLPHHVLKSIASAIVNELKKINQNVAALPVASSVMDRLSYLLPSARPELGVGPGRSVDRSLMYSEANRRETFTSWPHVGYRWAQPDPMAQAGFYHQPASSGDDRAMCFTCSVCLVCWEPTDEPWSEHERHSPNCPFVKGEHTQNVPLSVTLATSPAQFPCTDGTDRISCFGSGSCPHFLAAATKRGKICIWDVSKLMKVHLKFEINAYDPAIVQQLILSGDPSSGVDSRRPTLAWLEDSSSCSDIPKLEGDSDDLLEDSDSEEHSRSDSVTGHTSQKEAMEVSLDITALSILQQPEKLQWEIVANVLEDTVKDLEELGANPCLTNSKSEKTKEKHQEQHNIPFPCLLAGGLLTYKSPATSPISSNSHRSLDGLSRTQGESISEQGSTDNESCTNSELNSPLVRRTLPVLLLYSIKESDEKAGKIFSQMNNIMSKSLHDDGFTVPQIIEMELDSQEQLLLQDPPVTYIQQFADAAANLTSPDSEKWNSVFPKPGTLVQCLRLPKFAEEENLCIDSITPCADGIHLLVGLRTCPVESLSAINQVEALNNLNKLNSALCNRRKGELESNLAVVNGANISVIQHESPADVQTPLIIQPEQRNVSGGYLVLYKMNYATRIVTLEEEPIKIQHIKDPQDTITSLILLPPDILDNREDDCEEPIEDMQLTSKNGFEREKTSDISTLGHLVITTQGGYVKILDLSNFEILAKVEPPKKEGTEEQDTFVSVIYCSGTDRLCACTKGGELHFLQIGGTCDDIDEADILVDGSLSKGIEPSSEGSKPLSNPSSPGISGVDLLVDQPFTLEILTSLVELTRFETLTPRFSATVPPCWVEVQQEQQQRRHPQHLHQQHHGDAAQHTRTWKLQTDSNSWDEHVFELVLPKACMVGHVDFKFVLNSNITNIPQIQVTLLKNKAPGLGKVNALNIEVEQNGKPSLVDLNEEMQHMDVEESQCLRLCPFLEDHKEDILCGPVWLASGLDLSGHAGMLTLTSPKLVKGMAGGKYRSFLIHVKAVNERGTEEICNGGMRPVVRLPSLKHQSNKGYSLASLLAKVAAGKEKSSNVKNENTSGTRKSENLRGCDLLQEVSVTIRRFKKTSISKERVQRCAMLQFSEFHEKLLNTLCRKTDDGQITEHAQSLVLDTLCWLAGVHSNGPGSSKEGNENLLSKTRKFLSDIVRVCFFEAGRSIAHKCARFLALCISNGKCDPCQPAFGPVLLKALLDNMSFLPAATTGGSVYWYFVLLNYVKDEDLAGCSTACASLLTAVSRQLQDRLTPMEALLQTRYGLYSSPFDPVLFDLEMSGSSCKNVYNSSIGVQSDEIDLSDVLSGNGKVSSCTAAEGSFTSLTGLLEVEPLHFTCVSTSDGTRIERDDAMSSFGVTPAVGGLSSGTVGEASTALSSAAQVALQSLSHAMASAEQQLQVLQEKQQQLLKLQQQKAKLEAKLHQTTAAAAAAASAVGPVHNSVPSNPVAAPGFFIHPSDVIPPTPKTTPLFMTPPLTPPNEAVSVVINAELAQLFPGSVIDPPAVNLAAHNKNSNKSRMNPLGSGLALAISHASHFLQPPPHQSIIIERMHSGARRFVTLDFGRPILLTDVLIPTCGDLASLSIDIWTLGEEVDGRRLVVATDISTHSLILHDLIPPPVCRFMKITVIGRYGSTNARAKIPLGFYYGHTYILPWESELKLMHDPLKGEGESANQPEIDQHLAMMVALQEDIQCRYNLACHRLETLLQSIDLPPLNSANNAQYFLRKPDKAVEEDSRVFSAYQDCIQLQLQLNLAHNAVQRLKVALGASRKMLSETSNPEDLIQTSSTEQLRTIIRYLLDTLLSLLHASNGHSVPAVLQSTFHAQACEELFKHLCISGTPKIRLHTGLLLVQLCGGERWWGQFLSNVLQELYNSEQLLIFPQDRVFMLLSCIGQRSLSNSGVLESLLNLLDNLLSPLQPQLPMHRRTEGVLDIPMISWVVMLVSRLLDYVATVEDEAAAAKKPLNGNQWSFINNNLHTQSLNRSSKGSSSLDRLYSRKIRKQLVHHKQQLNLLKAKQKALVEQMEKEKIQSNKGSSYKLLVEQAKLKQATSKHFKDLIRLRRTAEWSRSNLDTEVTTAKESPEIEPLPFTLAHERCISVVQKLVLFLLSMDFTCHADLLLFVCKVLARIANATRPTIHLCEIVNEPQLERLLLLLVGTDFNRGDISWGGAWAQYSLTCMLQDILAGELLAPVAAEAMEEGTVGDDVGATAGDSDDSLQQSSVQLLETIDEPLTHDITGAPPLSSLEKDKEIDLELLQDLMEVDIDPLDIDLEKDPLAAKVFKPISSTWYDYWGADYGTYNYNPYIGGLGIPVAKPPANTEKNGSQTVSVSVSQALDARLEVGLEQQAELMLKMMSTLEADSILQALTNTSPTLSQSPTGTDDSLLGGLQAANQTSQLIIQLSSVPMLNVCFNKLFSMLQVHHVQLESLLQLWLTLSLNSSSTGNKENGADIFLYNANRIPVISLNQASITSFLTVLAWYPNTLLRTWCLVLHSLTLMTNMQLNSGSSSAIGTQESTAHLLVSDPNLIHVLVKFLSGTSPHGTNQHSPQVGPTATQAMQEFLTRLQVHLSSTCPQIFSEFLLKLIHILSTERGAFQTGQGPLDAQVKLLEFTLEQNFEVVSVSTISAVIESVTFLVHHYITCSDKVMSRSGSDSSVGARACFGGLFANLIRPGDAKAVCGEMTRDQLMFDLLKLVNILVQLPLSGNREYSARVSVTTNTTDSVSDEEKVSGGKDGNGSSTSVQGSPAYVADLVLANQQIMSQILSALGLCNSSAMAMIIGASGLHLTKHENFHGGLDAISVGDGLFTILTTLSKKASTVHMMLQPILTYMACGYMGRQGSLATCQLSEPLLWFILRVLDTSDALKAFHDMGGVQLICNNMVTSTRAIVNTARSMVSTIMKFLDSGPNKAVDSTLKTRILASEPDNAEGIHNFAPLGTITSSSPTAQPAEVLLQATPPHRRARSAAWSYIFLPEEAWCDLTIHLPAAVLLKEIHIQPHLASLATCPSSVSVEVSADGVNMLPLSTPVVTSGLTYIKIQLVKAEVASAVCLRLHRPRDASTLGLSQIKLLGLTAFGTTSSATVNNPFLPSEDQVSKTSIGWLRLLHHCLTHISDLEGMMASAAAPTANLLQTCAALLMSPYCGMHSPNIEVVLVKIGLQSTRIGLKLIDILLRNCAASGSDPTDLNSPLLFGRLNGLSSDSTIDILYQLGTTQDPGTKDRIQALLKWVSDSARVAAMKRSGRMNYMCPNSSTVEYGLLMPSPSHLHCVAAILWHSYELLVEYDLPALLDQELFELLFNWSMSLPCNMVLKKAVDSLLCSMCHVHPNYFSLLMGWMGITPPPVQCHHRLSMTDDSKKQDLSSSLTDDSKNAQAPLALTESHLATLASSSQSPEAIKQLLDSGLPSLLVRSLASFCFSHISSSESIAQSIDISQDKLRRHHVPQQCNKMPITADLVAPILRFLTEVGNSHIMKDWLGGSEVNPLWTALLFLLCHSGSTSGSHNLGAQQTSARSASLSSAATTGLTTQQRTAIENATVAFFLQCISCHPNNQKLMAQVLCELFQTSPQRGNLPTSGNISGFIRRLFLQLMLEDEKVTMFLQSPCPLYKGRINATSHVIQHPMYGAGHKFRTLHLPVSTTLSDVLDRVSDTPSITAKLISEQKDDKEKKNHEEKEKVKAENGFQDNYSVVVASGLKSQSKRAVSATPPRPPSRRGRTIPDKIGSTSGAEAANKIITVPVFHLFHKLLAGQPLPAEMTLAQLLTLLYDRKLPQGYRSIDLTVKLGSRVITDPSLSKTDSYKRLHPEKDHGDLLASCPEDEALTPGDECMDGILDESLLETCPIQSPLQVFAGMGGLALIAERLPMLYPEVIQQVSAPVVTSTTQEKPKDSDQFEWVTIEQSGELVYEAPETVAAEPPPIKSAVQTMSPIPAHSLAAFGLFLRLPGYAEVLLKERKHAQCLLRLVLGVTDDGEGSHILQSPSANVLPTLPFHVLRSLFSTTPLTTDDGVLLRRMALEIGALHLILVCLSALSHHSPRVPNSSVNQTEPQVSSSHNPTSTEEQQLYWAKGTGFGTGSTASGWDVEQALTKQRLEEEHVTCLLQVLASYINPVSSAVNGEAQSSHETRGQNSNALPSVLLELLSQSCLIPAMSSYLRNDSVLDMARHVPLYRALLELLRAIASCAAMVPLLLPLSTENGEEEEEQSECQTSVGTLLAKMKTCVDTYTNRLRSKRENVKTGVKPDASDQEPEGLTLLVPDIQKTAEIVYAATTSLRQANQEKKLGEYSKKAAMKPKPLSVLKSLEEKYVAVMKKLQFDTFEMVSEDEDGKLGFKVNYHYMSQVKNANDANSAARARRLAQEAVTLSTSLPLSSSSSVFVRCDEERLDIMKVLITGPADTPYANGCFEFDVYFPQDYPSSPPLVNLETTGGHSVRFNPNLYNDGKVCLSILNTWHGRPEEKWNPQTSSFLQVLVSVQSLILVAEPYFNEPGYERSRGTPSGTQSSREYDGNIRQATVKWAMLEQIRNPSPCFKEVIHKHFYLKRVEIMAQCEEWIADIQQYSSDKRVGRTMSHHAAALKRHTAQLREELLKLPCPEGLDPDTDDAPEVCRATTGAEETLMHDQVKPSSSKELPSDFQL
UniProt P61769, whole entry, looked up: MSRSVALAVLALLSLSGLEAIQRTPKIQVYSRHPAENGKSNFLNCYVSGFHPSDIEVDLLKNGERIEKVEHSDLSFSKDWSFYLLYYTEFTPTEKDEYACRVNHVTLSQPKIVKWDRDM
UniProt P21953: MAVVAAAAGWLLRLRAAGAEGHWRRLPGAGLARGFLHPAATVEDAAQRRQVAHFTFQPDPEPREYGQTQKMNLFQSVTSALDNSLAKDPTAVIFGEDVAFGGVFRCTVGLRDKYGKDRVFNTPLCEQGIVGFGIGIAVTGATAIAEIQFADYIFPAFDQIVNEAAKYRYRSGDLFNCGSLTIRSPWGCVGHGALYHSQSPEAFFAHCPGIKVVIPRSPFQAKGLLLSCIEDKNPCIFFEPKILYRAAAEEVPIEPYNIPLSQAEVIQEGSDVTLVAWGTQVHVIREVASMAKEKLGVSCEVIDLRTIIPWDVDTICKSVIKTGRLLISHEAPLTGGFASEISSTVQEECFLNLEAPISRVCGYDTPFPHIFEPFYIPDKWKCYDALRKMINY
UniProt Q99933: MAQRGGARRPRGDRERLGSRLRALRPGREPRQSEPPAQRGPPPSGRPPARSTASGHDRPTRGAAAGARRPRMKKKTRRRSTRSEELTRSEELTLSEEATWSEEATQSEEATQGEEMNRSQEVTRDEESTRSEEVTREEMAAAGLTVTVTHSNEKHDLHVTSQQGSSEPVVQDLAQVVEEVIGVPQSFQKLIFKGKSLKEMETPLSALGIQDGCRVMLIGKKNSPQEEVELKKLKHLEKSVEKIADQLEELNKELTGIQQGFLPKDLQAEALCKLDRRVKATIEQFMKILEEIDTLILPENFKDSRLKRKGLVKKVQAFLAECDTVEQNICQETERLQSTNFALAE
UniProt Q14137: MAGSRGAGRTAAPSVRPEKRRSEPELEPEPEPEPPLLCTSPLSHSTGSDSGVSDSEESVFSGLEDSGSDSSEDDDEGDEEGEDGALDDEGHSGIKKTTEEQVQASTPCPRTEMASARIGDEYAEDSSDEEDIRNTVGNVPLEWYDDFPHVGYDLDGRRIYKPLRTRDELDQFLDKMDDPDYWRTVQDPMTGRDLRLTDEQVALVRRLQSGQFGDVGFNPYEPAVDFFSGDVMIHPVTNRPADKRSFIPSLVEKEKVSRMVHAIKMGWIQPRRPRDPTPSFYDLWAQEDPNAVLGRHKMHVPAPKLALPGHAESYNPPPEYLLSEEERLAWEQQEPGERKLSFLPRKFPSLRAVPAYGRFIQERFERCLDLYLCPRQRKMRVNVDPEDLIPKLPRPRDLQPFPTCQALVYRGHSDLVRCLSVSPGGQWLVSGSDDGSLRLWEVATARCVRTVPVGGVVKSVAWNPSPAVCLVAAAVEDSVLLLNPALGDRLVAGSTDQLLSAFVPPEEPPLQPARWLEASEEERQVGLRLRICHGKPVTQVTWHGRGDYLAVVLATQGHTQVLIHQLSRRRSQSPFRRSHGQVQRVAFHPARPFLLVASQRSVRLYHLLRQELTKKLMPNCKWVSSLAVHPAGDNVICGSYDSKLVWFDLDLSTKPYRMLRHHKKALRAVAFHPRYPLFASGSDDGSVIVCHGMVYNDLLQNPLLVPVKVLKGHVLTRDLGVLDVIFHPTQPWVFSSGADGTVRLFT

These targets were tested with Cc1cc(ccc1-c1ccccc1)C(=O)N1CCCN(CC1)C(=O)CCl [compound 10] (assay: probe-labelled cysteine peptide fold change vs DMSO (competition) (log2 fold change); higher = less target engagement (more negative = stronger competition)). Conditions: 50 µM; THP-1; incubation time: 4 h.
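Also: competitive profiling in live THP-1 cells: cysteine peptides tagged with an iodoacetamide desthiobiotin (IA-DTB) probe, intensity after compound treatment relative to DMSO-treated cells.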

| Target | probe-labelled cysteine peptide fold change |
| --- | --- |
| AVEN_Q9NQS1_169_EWDSEASCPK (UniProt Q9NQS1) | -2.39 |
| BLM_P54132_704_SLCYQLPACVSPGVTVVISPLR (UniProt P54132) | 0.68 |
| BPTF_Q12830_506_VQLAELIDCLDK (UniProt Q12830) | 0.151 |
| BARGIN_Q6ZT62_213_KVEQCRDEYLADLYHFVTK (UniProt Q6ZT62) | 0.00893 |
| BIRC6_Q9NR09_543_DLEELGANPCLTNSK (UniProt Q9NR09) | -0.207 |
| B4GALT3_O60512_190+209_EALRDEEWDCLFLHDVDLLPENDHNLYVCDPR (UniProt O60512) | 0.202 |
| AURKA_O14965_33_RVLVTQQFPCQNPLPVNSGQAQR (UniProt O14965) | -0.0811 |
| BLVRA_P53004_204_MTVCLETEKK (UniProt P53004) | -0.376 |
| ATXN7L3_Q14CW9_226_CPQHTDEQR (UniProt Q14CW9) | 0.172 |
| B2M_P61769_45_SNFLNCYVSGFHPSDIEVDLLK (UniProt P61769) | -0.127 |
| BAZ1B_Q9UIG0_1231_AFHLFCLRPALYEVPDGEWQCPACQPATAR (UniProt Q9UIG0) | -0.0992 |
| BPTF_Q12830_940_AVQMCSKPR (UniProt Q12830) | -0.2 |
| BCKDHB_P21953_228_GLLLSCIEDK (UniProt P21953) | 0.0771 |
| BOD1L1_Q8NFC6_285_SEEFSDLPCPVEEIK (UniProt Q8NFC6) | 0.138 |
| BAG1_Q99933_330_VQAFLAECDTVEQNICQETER (UniProt Q99933) | 0.363 |
| BLMH_Q13867_164_CFPESYTTEATR (UniProt Q13867) | 0.0482 |
| BIRC6_Q9NR09_2910_AVCGEMTR (UniProt Q9NR09) | -0.0873 |
| BAZ1B_Q9UIG0_1096_DFGECVIALQASVIK (UniProt Q9UIG0) | 0.323 |
| BCOR_Q6W2J9_1525_HLLEYGADVNCSAQDGTRPLHDAVENDHLEIVR (UniProt Q6W2J9) | 0.153 |

| Target | probe-labelled cysteine peptide fold change |
| --- | --- |
| BAZ1A_Q9NRL2_586_RGGFDATDDACMELR (UniProt Q9NRL2) | -0.0751 |
| BARGIN_Q6ZT62_110_ALEMSCAIQNQLAR (UniProt Q6ZT62) | 0.265 |
| ATXN2_Q99700_852_DSFIENSSSNCTSGSSKPNSPSISPSILSNTEHK (UniProt Q99700) | -0.254 |
| BIRC6_Q9NR09_4601_CDEERLDIMK (UniProt Q9NR09) | -0.132 |
| AZU1_P20160_207_RGGICNGDGGTPLVCEGLAHGVASFSLGPCGR (UniProt P20160) | 0.156 |
| BDH2_Q9BUT1_93_LDVLFNVAGFVHHGTVLDCEEK (UniProt Q9BUT1) | 0.424 |
| BARGIN_Q6ZT62_631_CGMTTVLTLTGVSR (UniProt Q6ZT62) | -0.0108 |
| BCAS3_Q9H6U6_442_GTSHVFPINPYGGQPCVR (UniProt Q9H6U6) | -0.00785 |
| BCR_P11274_395_HCPVVVSEATIVGVR (UniProt P11274) | 0.187 |
| BOP1_Q14137_532_ICHGKPVTQVTWHGR (UniProt Q14137) | 0.63 |
| BOP1_Q14137_108_TTEEQVQASTPCPR (UniProt Q14137) | -0.638 |
| BAZ1A_Q9NRL2_970_SSNAYDPSQMCAEK (UniProt Q9NRL2) | -0.345 |
| BCKDK_O14874_222_MLATHHLALHEDKPDFVGIICTR (UniProt O14874) | 0.361 |
| BCKDHB_P21953_361_VCGYDTPFPHIFEPFYIPDK (UniProt P21953) | 0.155 |
| BAG1_Q99933_213_EMETPLSALGIQDGCR (UniProt Q99933) | -0.287 |
| BAG5_Q9UL15_360_LFACEEHPSHK (UniProt Q9UL15) | -0.59 |
| BPNT1_O95861_42_TCATDLQTK (UniProt O95861) | -0.33 |
| BCKDK_O14874_118_CLPFIIGCNPTILHVHELYIR (UniProt O14874) | 0.126 |
| BAZ2A_Q9UIF9_917_AALHDPGFPSYCQSLK (UniProt Q9UIF9) | 0.133 |

An excerpt of these results, with each value named.
BOP1_Q14137_532_ICHGKPVTQVTWHGR (UniProt Q14137)
  probe-labelled cysteine peptide fold change = 0.63
BCKDHB_P21953_361_VCGYDTPFPHIFEPFYIPDK (UniProt P21953)
  probe-labelled cysteine peptide fold change = 0.155
